From paper PMC7819943, “Rice protein-binding microarrays: a tool to detect cis-acting elements near promoter regions in rice”
The other results are listed elsewhere or left out.

These sequences were tested against T1, OsSMF1 (Oryza sativa, UniProt Q6ZLB0 1-436) (assay: protein-binding microarray (RPBM); PBS, 2% BSA, 51.3 ng/ul salmon testes DNA, 50 uM zinc acetate, 200 nM TF, 25 C, 1 h; high values mean tight binding). Settings: protein: recombinant; tags: N-terminal polyhistidine and DsRed monomer fusion (pET32a); chain copies: 2; label: CyDye5-dUTP incorporated in the synthesized complementary strand; 3' TTTTT single-stranded linker to array surface; dsDNA, one strand shown.
T1 sequence: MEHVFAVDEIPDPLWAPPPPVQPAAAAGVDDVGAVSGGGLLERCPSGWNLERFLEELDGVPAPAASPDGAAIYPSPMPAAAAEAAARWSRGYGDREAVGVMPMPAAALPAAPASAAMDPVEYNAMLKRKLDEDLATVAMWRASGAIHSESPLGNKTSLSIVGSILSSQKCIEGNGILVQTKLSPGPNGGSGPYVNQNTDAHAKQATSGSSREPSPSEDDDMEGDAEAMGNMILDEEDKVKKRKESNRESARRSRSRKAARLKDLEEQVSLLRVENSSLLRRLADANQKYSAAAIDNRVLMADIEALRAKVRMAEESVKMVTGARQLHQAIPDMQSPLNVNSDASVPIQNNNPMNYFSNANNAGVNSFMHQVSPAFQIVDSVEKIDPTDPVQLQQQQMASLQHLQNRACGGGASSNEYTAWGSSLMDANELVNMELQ
How it was run: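 A custom Agilent array was converted to double-stranded form by primer extension with Cy5-dUTP and blocked with 2% BSA. Protein at 200 nM in PBS with 2% BSA, salmon testes DNA and 50 µM zinc acetate was applied for 1 h at 25 °C, followed by washing. The proteins were polyhistidine–DsRed N-terminal fusions of transcription factors, expressed in E. coli BL21-CodonPlus and Ni–NTA-purified. The binding signal is per-feature fluorescence intensity (arbitrary units) from an Axon 4000B scanner.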

Sequence | binding signal
TCTTCCTCAAAGTAAAATAGAAGCTAGGGCTAAGAGCCCACGGAGTCACCTAGTGCAG | 65100 fluorescence intensity (a.u.)
CGTGGTGGGCCCCACCCCGTCAGTGACACCGGGACGGGGTCGGAGTCACCTAGTGCAG | 3210 fluorescence intensity (a.u.)
AGGAAGACAAATCACGAACTCTTAAGGCATCTGTAGTGTTCGGAGTCACCTAGTGCAG | 3240 fluorescence intensity (a.u.)
TCTTACTACAAGTATGATGGCACGTCAAGTTTTACAAAAGCGGAGTCACCTAGTGCAG | 37800 fluorescence intensity (a.u.)
ATGGGATGTCTGTTCGGTCGGGACTCATCAGTCGGGACGGCGGAGTCACCTAGTGCAG | 3230 fluorescence intensity (a.u.)
TAGCTTTGGTATATCAGTCTGATAGAGGCGAGTCATCCATCGGAGTCACCTAGTGCAG | 3950 fluorescence intensity (a.u.)
AAACTTGAATCAGTTAGCTAACTGCATGACATCCATGTCGCGGAGTCACCTAGTGCAG | 3220 fluorescence intensity (a.u.)
ACTGCCCATTGTCCATTGATGACACGGTCACTCACTCCCGCGGAGTCACCTAGTGCAG | 3910 fluorescence intensity (a.u.)
CGCAGGAGACGATAGCACAAAAGGCAACAGCTACGTGGCGCGGAGTCACCTAGTGCAG | 5290 fluorescence intensity (a.u.)
CCCCACCATAGTCCACGTCACCTGCTCAGCGCTCTCCCATCGGAGTCACCTAGTGCAG | 27900 fluorescence intensity (a.u.)
GAGAGGGGTGCGCAGTGTGTTGTGGTGGTGCACATGACGGCGGAGTCACCTAGTGCAG | 3510 fluorescence intensity (a.u.)
GATAGTAAGCTTGGAAGTAGAGTAGTTGTAACTACTCGTACGGAGTCACCTAGTGCAG | 30200 fluorescence intensity (a.u.)
AAAGAGATTTTGGGTGAATGTGACACATCATCTATTCATTCGGAGTCACCTAGTGCAG | 5740 fluorescence intensity (a.u.)
CTACGATTTGCCACTGACTTTGTCACGTTCTACAACATGCCGGAGTCACCTAGTGCAG | 4360 fluorescence intensity (a.u.)
CGGGCCGGGCCGCCACGTGAGGCCCATATCCGGACAGAGACGGAGTCACCTAGTGCAG | 3400 fluorescence intensity (a.u.)
TTGCTACACTCATTCGGTCATTCACTATACTTTGTGTACGCGGAGTCACCTAGTGCAG | 5290 fluorescence intensity (a.u.)
AATCAAGTTTGCCTCCCTGCGAATTTGCCACGTGTCTCCTCGGAGTCACCTAGTGCAG | 30600 fluorescence intensity (a.u.)
CTCAAGCAACCACCGTTCATGGATATGACGACGTCGCTGGCGGAGTCACCTAGTGCAG | 3440 fluorescence intensity (a.u.)
TCACCTCCATTAGCTATTTAGCTGGCCAGTCATGATCCATCGGAGTCACCTAGTGCAG | 3960 fluorescence intensity (a.u.)
ACGTAGGGTATAAGTATAATAACGAGTACAACGTCACGTGCGGAGTCACCTAGTGCAG | 4360 fluorescence intensity (a.u.)
GCACAGCGCAGTCACTCACACTCGCGGTCTCCCTCCCTCCCGGAGTCACCTAGTGCAG | 3490 fluorescence intensity (a.u.)
ACTTGTCACTTGGTTCACACTAAGAGCACTTGACATATCTCGGAGTCACCTAGTGCAG | 17900 fluorescence intensity (a.u.)
TGTCCTATCCTGCCTGCCCTTGCACCTTCCTCTCTGCAAACGGAGTCACCTAGTGCAG | 3580 fluorescence intensity (a.u.)
GTCCCTACTGTTTACTACCACTCTTTCTGATCTATGTAGACGGAGTCACCTAGTGCAG | 3770 fluorescence intensity (a.u.)
GCGCTGGGTCGCCGTCGCGCCGTCACTCCCCTACGACTGACGGAGTCACCTAGTGCAG | 3190 fluorescence intensity (a.u.)
CACACCAGGTGTTCGACACTCGGGCGAGCGGCGCGTCACGCGGAGTCACCTAGTGCAG | 3480 fluorescence intensity (a.u.)
GCGAAGAGCCGTTCACGTCGCGGATCCGCGTGTCTCGAGCCGGAGTCACCTAGTGCAG | 3620 fluorescence intensity (a.u.)

Sequence | binding signal
CTCTGTGGGGCTTTGGACGGCCGGCGGTGGGGACGAGGTCCGGAGTCACCTAGTGCAG | 3340 fluorescence intensity (a.u.)
ACAGCCAAGTGGGATGACTGGACGGATACTCATCAACTCGCGGAGTCACCTAGTGCAG | 5510 fluorescence intensity (a.u.)
ATCACCACCCAAACGGCACGATCCGGATCGTTTACACTGCCGGAGTCACCTAGTGCAG | 20600 fluorescence intensity (a.u.)
GGAAGTTGGTGTACCGTTGCTCTGACACGTGGGCCCCAACCGGAGTCACCTAGTGCAG | 14800 fluorescence intensity (a.u.)
TACCCCGCGAGACAATGACACATCATCTCACGAGAAGTTACGGAGTCACCTAGTGCAG | 4120 fluorescence intensity (a.u.)
TCTTCAGATAGTCTTGCAGATCTTGACTACACATCAGCTCCGGAGTCACCTAGTGCAG | 3200 fluorescence intensity (a.u.)
GTTGTTATAGTCGCTATATGAGCGAAGTTATGACGTGACACGGAGTCACCTAGTGCAG | 6800 fluorescence intensity (a.u.)
ACGATCAAATTTAGACATGGAAACTCGTGACTGTGCTTATCGGAGTCACCTAGTGCAG | 5030 fluorescence intensity (a.u.)
TCACATGAATGATCATTAGCATGTCATTATCATGATTATGCGGAGTCACCTAGTGCAG | 3430 fluorescence intensity (a.u.)
TCATGATGAATCGGGGTGGTGGAGGTTTGCTTGTTATGGTCGGAGTCACCTAGTGCAG | 3170 fluorescence intensity (a.u.)
TAAGACGTTTCGCTTATAATTAATAATATGTATAAGAGGGCGGAGTCACCTAGTGCAG | 5320 fluorescence intensity (a.u.)
GAAAGCATTCGTACACCGGGAGAAAGTGACCCATAGACGACGGAGTCACCTAGTGCAG | 5560 fluorescence intensity (a.u.)
TGACTGGCGCGGAGTCACGACGAGTCCGGCCAGTCCACCACGGAGTCACCTAGTGCAG | 3550 fluorescence intensity (a.u.)
GTAGTAGTACCGTTACTACTATATGTTCTCTGTTACTGCACGGAGTCACCTAGTGCAG | 3390 fluorescence intensity (a.u.)
TGAAGAATGTTGTAAATTAATGGATTGTGTATATCTCACCCGGAGTCACCTAGTGCAG | 19400 fluorescence intensity (a.u.)
AGAGTAACAAGCTGAAACTGCTGTGGCCACATCACATTCTCGGAGTCACCTAGTGCAG | 4370 fluorescence intensity (a.u.)
TTGAGTGTAGGCAACTGATGATCTGTCAGAACGTAGTCTCCGGAGTCACCTAGTGCAG | 4350 fluorescence intensity (a.u.)
ACGCCGACGAGATCGCCGCCGTCCGCGCGGTTCTTGGCGCCGGAGTCACCTAGTGCAG | 3310 fluorescence intensity (a.u.)
GAGGGTTCTTGATGCGTGACCTGATGCGGGAGGCGTATTGCGGAGTCACCTAGTGCAG | 39200 fluorescence intensity (a.u.)
GGAATGTTTGGAAGGTGGAATTTTAAGCTTCAAAATTTCCCGGAGTCACCTAGTGCAG | 23400 fluorescence intensity (a.u.)
CATGGATGATGATGATGTGTATCTTCCGTTGAATACTGCACGGAGTCACCTAGTGCAG | 5850 fluorescence intensity (a.u.)
CTCTCCTCCACATCATCACTCAATCCAATGTGGCATTCTTCGGAGTCACCTAGTGCAG | 13000 fluorescence intensity (a.u.)
AGGAAGTACTCAAACCATGACGACAGCCAAAACACGTAAGCGGAGTCACCTAGTGCAG | 7640 fluorescence intensity (a.u.)
ACACTCGCTATGTTTGCTACGGCATGCGTAAGAAGTCATGCGGAGTCACCTAGTGCAG | 3510 fluorescence intensity (a.u.)
ACCATCACATGTCACCACCACTCATGGTCTCATCTTTTCGCGGAGTCACCTAGTGCAG | 4610 fluorescence intensity (a.u.)
ATTTCTTTCAACTTCCCAACTTCTCCACCACCTAAACACACGGAGTCACCTAGTGCAG | 32100 fluorescence intensity (a.u.)
GTGATTCGATTCCTTGCCGCGCCAAATCTTGGTTTGAGATCGGAGTCACCTAGTGCAG | 24500 fluorescence intensity (a.u.)

Some values from above.
GGAATGTTTGGAAGGTGGAATTTTAAGCTTCAAAATTTCCCGGAGTCACCTAGTGCAG – binding signal: 23400 fluorescence intensity (a.u.)
GGAAGTTGGTGTACCGTTGCTCTGACACGTGGGCCCCAACCGGAGTCACCTAGTGCAG – binding signal: 14800 fluorescence intensity (a.u.)
ACGATCAAATTTAGACATGGAAACTCGTGACTGTGCTTATCGGAGTCACCTAGTGCAG – binding signal: 5030 fluorescence intensity (a.u.)
